These results are taken from article PMC10503807.

Amino acid sequences for entries named in this document (tags omitted). Residues count along the entry.
UniProt Q91WP6, residues 21-418: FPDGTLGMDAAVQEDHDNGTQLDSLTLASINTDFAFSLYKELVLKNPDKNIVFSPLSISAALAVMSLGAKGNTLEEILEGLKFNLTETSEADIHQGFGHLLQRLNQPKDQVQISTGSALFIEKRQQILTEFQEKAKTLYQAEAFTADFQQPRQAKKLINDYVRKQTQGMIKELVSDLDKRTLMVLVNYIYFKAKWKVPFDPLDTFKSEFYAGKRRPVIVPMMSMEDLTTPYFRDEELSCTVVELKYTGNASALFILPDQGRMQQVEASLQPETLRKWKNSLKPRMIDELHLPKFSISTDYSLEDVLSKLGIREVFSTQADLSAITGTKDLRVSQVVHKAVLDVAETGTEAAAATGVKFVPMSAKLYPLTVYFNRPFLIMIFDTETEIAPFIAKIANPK

These are yes or no findings as the source states them, for the method shown. In cells and extracts the contact can be indirect. Some binding calls cover weakened binding; strength is not graded here.

The target in assay [1] is T1, Praja1 (PJA1), mouse (mouse (endogenous in hippocampus)) (UniProt O55176).
T1 sequence: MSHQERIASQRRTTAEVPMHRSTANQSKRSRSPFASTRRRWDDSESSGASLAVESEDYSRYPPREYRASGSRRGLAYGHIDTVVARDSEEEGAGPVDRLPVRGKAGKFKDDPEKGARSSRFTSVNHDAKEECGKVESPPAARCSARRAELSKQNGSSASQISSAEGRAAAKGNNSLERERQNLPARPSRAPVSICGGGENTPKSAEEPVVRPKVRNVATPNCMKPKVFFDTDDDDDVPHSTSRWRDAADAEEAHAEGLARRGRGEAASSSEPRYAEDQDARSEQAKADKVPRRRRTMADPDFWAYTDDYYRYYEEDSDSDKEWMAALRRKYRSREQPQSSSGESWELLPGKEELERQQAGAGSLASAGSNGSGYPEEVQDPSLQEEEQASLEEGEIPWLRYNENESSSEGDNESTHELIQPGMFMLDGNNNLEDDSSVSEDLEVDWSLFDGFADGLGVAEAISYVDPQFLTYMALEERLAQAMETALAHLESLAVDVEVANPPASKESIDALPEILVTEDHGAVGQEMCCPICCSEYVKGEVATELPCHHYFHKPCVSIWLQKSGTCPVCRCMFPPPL
Description: co-IP; mouse sample lysed in NP-40 lysis buffer, antibody or homologous IgG overnight at 4°C, protein A/G magnetic agarose beads, Western blot. A general note: Immunoblotting shows a protein as a band on a membrane.

Assay [2] has as its target T2, Praja1 (PJA1), human (human (endogenous in normal human astrocytes)) (UniProt Q8NG27).
T2 sequence: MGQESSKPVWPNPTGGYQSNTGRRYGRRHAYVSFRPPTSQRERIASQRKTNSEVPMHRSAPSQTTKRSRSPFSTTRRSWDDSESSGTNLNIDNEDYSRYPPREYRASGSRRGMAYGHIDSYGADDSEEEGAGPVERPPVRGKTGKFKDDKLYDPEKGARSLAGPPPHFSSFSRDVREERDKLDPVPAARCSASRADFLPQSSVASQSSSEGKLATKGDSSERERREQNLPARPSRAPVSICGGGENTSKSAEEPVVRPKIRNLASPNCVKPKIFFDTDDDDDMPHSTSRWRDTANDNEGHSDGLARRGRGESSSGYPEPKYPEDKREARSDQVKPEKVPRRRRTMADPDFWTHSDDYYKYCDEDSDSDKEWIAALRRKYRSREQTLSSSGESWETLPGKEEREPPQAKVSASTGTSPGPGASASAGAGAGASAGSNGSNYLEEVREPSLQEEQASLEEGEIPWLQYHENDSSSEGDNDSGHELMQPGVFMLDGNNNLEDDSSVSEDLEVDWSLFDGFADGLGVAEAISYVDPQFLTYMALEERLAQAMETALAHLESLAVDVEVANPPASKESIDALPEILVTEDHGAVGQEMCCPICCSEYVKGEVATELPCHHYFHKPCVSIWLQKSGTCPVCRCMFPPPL
Description: co-IP; normal human astrocytes (NHAs) lysed in NP-40 lysis buffer, antibody or homologous IgG overnight at 4°C, protein A/G magnetic agarose beads, Western blot.

Take “Serine peptidase inhibitor clade A member 3N (Serpina3n) (from UniProt Q91WP6 21-418)”: in assay [1], the binding entry is on record as “binds”.

B1: α1-antichymotrypsin (AACT, the human ortholog of murine Serpina3n) (protein, UniProt P01011 24-423)
chain: HPNSPLDEENLTQENQDRGTHVDLGLASANVDFAFSLYKQLVLKAPDKNVIFSPLSISTALAFLSLGAHNTTLTEILKGLKFNLTETSEAEIHQSFQHLLRTLNQSSDELQLSMGNAMFVKEQLSLLDRFTEDAKRLYGSEAFATDFQDSAAAKKLINDYVKNGTRGKITDLIKDLDSQTMMVLVNYIFFKAKWEMPFDPQDTHQSRFYLSKKKWVMVPMMSLHHLTIPYFRDEELSCTVVELKYTGNASALFILPDQDKMEEVEAMLLPETLKRWRDSLEFREIGELYLPKFSISRDYNLNDILLQLGIEEAFTSKADLSGITGARNLAVSQVVHKAVLDVFEEGTEASAATAVKITLLSALVETRTIVRFNRPFLMIIVPTDTQNIFFMSKVTNPKQA
Take B1: the binding entry in assay [2] is listed as “binds”.
